US20180273632A1 (BIOCEROX PRODUCTS B V, published 2018)
No constants are given. Whether binding was seen depends on the method and setting. Some results given as binding are weak or reduced against the parent protein; the word gives no strength.

Chains of the proteins cited; added tags and fusions are not shown. Lines headed by an entry give the natural chain unless they say otherwise; changes in a name come on top.
UniProt P43489: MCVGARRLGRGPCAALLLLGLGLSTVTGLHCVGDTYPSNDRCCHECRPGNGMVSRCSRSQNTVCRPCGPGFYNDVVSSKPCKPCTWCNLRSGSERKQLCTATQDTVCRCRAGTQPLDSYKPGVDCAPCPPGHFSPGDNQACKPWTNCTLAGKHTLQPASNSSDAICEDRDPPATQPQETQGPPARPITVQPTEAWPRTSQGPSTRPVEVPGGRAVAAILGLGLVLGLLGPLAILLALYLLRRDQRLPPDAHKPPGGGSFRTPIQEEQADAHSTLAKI

What was measured:
[1] = biological target: T1, recombinant human CD134:human Fcγ (IgG1) fusion protein (R&D Systems) (human) (UniProt P43489+P01857); assay: Western blot of CD134:Fcγ fusion protein
[2] = biological target: T1, recombinant human CD134:human Fcγ (IgG1) fusion protein (R&D Systems) (human); assay: Western blot, reducing conditions, 100 ng/mL antibody
[3] = biological target: T1, recombinant human CD134:human Fcγ (IgG1) fusion protein (R&D Systems) (human); assay: Western blot, non-reducing conditions, 100 ng/mL antibody
[4] = biological target: T1, recombinant human CD134:human Fcγ (IgG1) fusion protein (R&D Systems) (human); assay: western blot, 250 ng/lane CD134:Fcγ fusion protein under conditions a-d of Figure 19A, 100 ng/mL antibody, HRP goat anti-mouse Fcγ

Measured: binding

B1: mouse anti-human CD134 monoclonal antibody clone 20E5 (antibody, mouse IgG1, V domains shown)
VH: EVQLQQSGPELVKPGASVKMSCKASGYTFTSYVMHWVKQKPGQGLEWIGYINPYNDGTKYNEKFKGKATLTSDKSSSTAYMELSSLTSEDSAVYYCANYYGSSLSMDYWGQGTSVTVSS
VL: DIQMTQTTSSLSASLGDRVTISCRASQDISNYLNWYQQKPDGTVKLLIYYTSRLHSGVPSRFSGSGSGTDYSLTISNLEQEDIATYFCQQGNTLPWTFGGGTKLEIKR
notes: also called m20E5
binds: all assays above

B2: mouse anti-human CD134 monoclonal antibody clone 12H3 (antibody, mouse IgG1, V domains shown)
VH: EVQLQQSGPELVKPGASVKISCKTSGYTFKDYTMHWVKQSHGKSLEWIGGIYPNNGGSTYNQNFKDKATLTVDKSSSTAYMEFRSLTSEDSAVYYCARMGYHGPHLDFDVWGAGTTVTVSP
VL: DIVMTQSHKFMSTSLGDRVSITCKASQDVGAAVAWYQQKPGQSPKLLIYWASTRHTGVPDRFTGGGSGTDFTLTISNVQSEDLTDYFCQQYINYPLTFGGGTKLEIKR
notes: also called m12H3
binds: all assays above
